Paper PMC7819943, “Rice protein-binding microarrays: a tool to detect cis-acting elements near promoter regions in rice”
Some of the results follow.

By UniProt entry, the sequences of proteins in these tests, tags left out.
UniProt Q0JBA9, entry or part of it: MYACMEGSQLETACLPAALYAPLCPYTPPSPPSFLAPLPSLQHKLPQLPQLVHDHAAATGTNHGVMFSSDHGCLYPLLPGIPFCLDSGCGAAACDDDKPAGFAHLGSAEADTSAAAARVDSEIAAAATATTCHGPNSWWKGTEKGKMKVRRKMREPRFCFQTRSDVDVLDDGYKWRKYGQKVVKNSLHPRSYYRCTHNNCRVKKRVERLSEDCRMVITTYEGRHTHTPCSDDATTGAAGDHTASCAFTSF

Target: OsWRKY34 (Oryza sativa, UniProt Q0JBA9 1-250)
Assay: protein-binding microarray (RPBM); PBS, 2% BSA, 51.3 ng/ul salmon testes DNA, 50 uM zinc acetate, 200 nM TF, 25 C, 1 h; high values mean tight binding
Details: protein: recombinant; tags: N-terminal polyhistidine and DsRed monomer fusion (pET32a); label: CyDye5-dUTP incorporated in the synthesized complementary strand; 3' TTTTT single-stranded linker to array surface; dsDNA, one strand shown
Outline: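 The binding signal for each feature is its fluorescence intensity in arbitrary units. An Axon 4000B scanner was used to read a custom Agilent array that had been made double-stranded with Cy5-dUTP primer extension, blocked with 2% BSA, incubated at 25 °C for 1 h with 200 nM protein in PBS, 2% BSA, salmon testes DNA and 50 µM zinc acetate, and washed. The protein was an N-terminal polyhistidine–DsRed transcription factor fusion from E. coli BL21-CodonPlus, purified on Ni–NTA.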

| Sequence | binding signal |
| --- | --- |
| GCATTATTCGTCTATCCATTTTCTCCCATGCTAAATCCAACGGAGTCACCTAGTGCAG | 9580 fluorescence intensity (a.u.) |
| GGGTTTGCATTATTTTGGAACGGAGGGAGTAGGTAGTAGCCGGAGTCACCTAGTGCAG | 9350 fluorescence intensity (a.u.) |
| ACTTCGTCCAATTGCTCTCTCTCTCTCTCTCATTTCTTTTCGGAGTCACCTAGTGCAG | 14200 fluorescence intensity (a.u.) |
| CATGCAGACTTTCCCGATTTCTCCGCCTCCACGTGTCACTCGGAGTCACCTAGTGCAG | 9270 fluorescence intensity (a.u.) |
| TCCCGTGCACTCTCTCTGCAGCAGAATAATCTACTGAATCCGGAGTCACCTAGTGCAG | 9160 fluorescence intensity (a.u.) |
| TTTTTTTTTCAGTTTTATTATTATTACTTACTTACACGCGCGGAGTCACCTAGTGCAG | 8160 fluorescence intensity (a.u.) |
| CTTCCAGGATTTTTCTTCATTGCTTGAATGGTGCTCCACTCGGAGTCACCTAGTGCAG | 11000 fluorescence intensity (a.u.) |
| GGGTTGAGCACAGCAGTTTACAGTAGTGTTATTTCGTATTCGGAGTCACCTAGTGCAG | 11200 fluorescence intensity (a.u.) |
| CTCTATTTAAAATTTTCTTTCACCCATGAGTTCTTATATTCGGAGTCACCTAGTGCAG | 9600 fluorescence intensity (a.u.) |
| TCGGAGGGGTTTTATGCAAAGTGTCGATTGGCTTTTTGTGCGGAGTCACCTAGTGCAG | 14600 fluorescence intensity (a.u.) |
| AGAGGGATGTGCCATTGTTCTGTTTGGTTGAAAGACATTGCGGAGTCACCTAGTGCAG | 9500 fluorescence intensity (a.u.) |
| GTCCAGTGGACCAACCGGGTCACGGTCTCACGTGCCAAAGCGGAGTCACCTAGTGCAG | 8710 fluorescence intensity (a.u.) |
| TGGGGAGGGGAGGGAGAGGTGTCGTCAACAGGGAGGGAGGCGGAGTCACCTAGTGCAG | 15300 fluorescence intensity (a.u.) |
| TCCTCTGATGGCCACCGTCGCCGTGTTCTTCCCGCTGCCGCGGAGTCACCTAGTGCAG | 8340 fluorescence intensity (a.u.) |
| GTCTTGGGTTGGCTTGGCTTGCTGTCCGCCCGCGTTCACACGGAGTCACCTAGTGCAG | 10400 fluorescence intensity (a.u.) |
| TCCAATCTCGGGTTCACATCCCCTGCCATCCAGCTCATACCGGAGTCACCTAGTGCAG | 9860 fluorescence intensity (a.u.) |
| TACGCTTTTCTCCCTTCTTTCCCCTTTTCGCGCTATCCTTCGGAGTCACCTAGTGCAG | 9800 fluorescence intensity (a.u.) |
| CAGCCTCCTCCTGTGTGCTTGATCCCAACCGACAACGTCCCGGAGTCACCTAGTGCAG | 8100 fluorescence intensity (a.u.) |
| GATTGCTTCACTTTGCCATGCCACACTTCAGTCATGCCACCGGAGTCACCTAGTGCAG | 8530 fluorescence intensity (a.u.) |
| GTCCTGCTACGCATACTCTCCCCTCTGACTCTTTGCGCCACGGAGTCACCTAGTGCAG | 8250 fluorescence intensity (a.u.) |
| GGTCGCGAGAACTTGTGGCTGGGAGGGTCCAGGGCGCGCACGGAGTCACCTAGTGCAG | 9780 fluorescence intensity (a.u.) |
| AGTCAAATTGCACCGGTTTCGAGAGTTAGGGGTTGAGATACGGAGTCACCTAGTGCAG | 8810 fluorescence intensity (a.u.) |
| GGCTACGACTCTACCTCACATGCCCCACGCATCGTTTGCACGGAGTCACCTAGTGCAG | 10400 fluorescence intensity (a.u.) |
| TTATTATGGTTATATTGTACTAATTCATTGTCCAGGTTTTCGGAGTCACCTAGTGCAG | 8430 fluorescence intensity (a.u.) |
| AACGCCTCTGCCGCCCTCCTCTCTCTCTCTCTTGCTCGCTCGGAGTCACCTAGTGCAG | 9550 fluorescence intensity (a.u.) |
| AGCGTTTCTTTTTTACCCGTTTCTGTCCTAACATGAACCCCGGAGTCACCTAGTGCAG | 8170 fluorescence intensity (a.u.) |
| CATCCTCTGGTATCAATATAGTACTGGCCACATTTTTCCACGGAGTCACCTAGTGCAG | 10700 fluorescence intensity (a.u.) |

| Sequence | binding signal |
| --- | --- |
| ACGCAGCATGCCACGCCGATCTCCTCGCGCCACGTCACCCCGGAGTCACCTAGTGCAG | 8080 fluorescence intensity (a.u.) |
| GCGCTTCCGCCGCCGCCGCCACCACCACCGCCATCAACGCCGGAGTCACCTAGTGCAG | 8940 fluorescence intensity (a.u.) |
| AGACGATCTCATGACATTAATTTGACCATCATTAGGCCTACGGAGTCACCTAGTGCAG | 8230 fluorescence intensity (a.u.) |
| GGTGGTCTCTCTCTCTCTCTCTTCTCTCGCCTCACTTCGCCGGAGTCACCTAGTGCAG | 8490 fluorescence intensity (a.u.) |
| AAAATTGAACCCTGTATATATATCATTTCTTATGTTGTATCGGAGTCACCTAGTGCAG | 9490 fluorescence intensity (a.u.) |
| TTTCCGACATGGCATGTACGCGTCATCGTCGCCGCGCGTTCGGAGTCACCTAGTGCAG | 9370 fluorescence intensity (a.u.) |
| ATCCATCCCACACTGCCACACAACGCCATCTCTCTCTCTCCGGAGTCACCTAGTGCAG | 8560 fluorescence intensity (a.u.) |
| GGATCTGGCCACCCCGCCGCCATCGCCTGCCGTTTTATTTCGGAGTCACCTAGTGCAG | 10700 fluorescence intensity (a.u.) |
| TCCGTCTCGCCTCGTCACCTCACCTCGGCATCACCCAGGTCGGAGTCACCTAGTGCAG | 9220 fluorescence intensity (a.u.) |
| GCTTTTATTCTACTTGTACAGTATACTACCTTACTTACCTCGGAGTCACCTAGTGCAG | 12200 fluorescence intensity (a.u.) |
| GCTCAAACTCCCGCAACGTTATCATCTCCACTCTTCCACCCGGAGTCACCTAGTGCAG | 15400 fluorescence intensity (a.u.) |
| ACACCGTTGACTTTTTAGCACATGTTGGACTGTTCGTCTTCGGAGTCACCTAGTGCAG | 39800 fluorescence intensity (a.u.) |
| GCTAGAAAAGTACGACAGCGACAAGCCAACAACAACAACTCGGAGTCACCTAGTGCAG | 8080 fluorescence intensity (a.u.) |
| GTATGCCATTCGCCCAAGATGCTTTTGCTTCGCATGGACCCGGAGTCACCTAGTGCAG | 8540 fluorescence intensity (a.u.) |
| TTCTGGTTTGGCATTTTGGCCCGTATAGAAAGAATTTGCCCGGAGTCACCTAGTGCAG | 8310 fluorescence intensity (a.u.) |
| ATGTTTGGACTCCATAAGTTTCACTTAAAGTTTTTAGCATCGGAGTCACCTAGTGCAG | 8150 fluorescence intensity (a.u.) |
| GGAAAATTGGATCTATGTCACTCCGTCGCGTTTTTCATCCCGGAGTCACCTAGTGCAG | 10100 fluorescence intensity (a.u.) |
| GTCTTGTGTCAAGTGCCAGTCACTCAGTTCATCCACAGCACGGAGTCACCTAGTGCAG | 8080 fluorescence intensity (a.u.) |
| GAACGGTCAAACATGTGCTAAAAAGTCAACGGTGTCAAACCGGAGTCACCTAGTGCAG | 10100 fluorescence intensity (a.u.) |
| CGGCGGGTGGGGCGGTGGCGGTGAGGGATGCGGTGGTGGCCGGAGTCACCTAGTGCAG | 10700 fluorescence intensity (a.u.) |
| TTCCTTAGCCAATGTGTTCAGATTCCTCACTTCTTTCACTCGGAGTCACCTAGTGCAG | 12300 fluorescence intensity (a.u.) |
| ACACATACACACACTCGTCGTCTCACTCCCACAGTGATAACGGAGTCACCTAGTGCAG | 8720 fluorescence intensity (a.u.) |
| TCTTTTGTCACATCTTTATAATATTGCCCATGGCACATACCGGAGTCACCTAGTGCAG | 8490 fluorescence intensity (a.u.) |
| GCATCTCCTCTCCTCCATCCTTCCTCTCGGGGTTGGCCTCCGGAGTCACCTAGTGCAG | 10500 fluorescence intensity (a.u.) |
| GCGTAGGGTGGTGTTTGGTACCGCGAGACCGTGCGTGAGTCGGAGTCACCTAGTGCAG | 9380 fluorescence intensity (a.u.) |
| AACATCAGACTTACATGGTTCTCTTCTGTGGTGTTGCATGCGGAGTCACCTAGTGCAG | 9540 fluorescence intensity (a.u.) |
| AGTACCTGCAACTTTCATGTTATGCAAATGACCTAGTTATCGGAGTCACCTAGTGCAG | 8810 fluorescence intensity (a.u.) |
